This is one part of the list.
What was measured:
Assay in all cases: log2 fold change, soluble protein after heating vs DMSO (PISA); higher = thermal stabilisation; K562 lysate, 10 uM; active = over 0.2 and 3.5 SD of the protein, either way, in both replicates (recomputed)
lapatinib = compound: CS(=O)(=O)CCNCc1ccc(-c2ccc3ncnc(Nc4ccc(OCc5cccc(F)c5)c(Cl)c4)c3c2)o1 [lapatinib]
How it was run: (§1)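 Values give the log-two fold change in thermal stability against solvent controls, from duplicates. Crude K562 extract at 1 mg/mL protein, made by dounce homogenisation in PBS pH 7.4 with 1 mM MgCl2, was treated with 10 μM compound for 30 min. After 3 min heating across 48°C-58°C, aliquots were pooled, adjusted to 0.5% NP-40 at 4°C and centrifuged at 21,000xg for 90 min. The supernatant was measured by TMTpro 16plex LC-MS/MS with channel sums equalised.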

By UniProt entry, the sequences of proteins in these tests, tags left out. Where a name states a change or a piece, a line headed by the entry shows the natural chain unless it says otherwise.
UniProt Q9BUI4: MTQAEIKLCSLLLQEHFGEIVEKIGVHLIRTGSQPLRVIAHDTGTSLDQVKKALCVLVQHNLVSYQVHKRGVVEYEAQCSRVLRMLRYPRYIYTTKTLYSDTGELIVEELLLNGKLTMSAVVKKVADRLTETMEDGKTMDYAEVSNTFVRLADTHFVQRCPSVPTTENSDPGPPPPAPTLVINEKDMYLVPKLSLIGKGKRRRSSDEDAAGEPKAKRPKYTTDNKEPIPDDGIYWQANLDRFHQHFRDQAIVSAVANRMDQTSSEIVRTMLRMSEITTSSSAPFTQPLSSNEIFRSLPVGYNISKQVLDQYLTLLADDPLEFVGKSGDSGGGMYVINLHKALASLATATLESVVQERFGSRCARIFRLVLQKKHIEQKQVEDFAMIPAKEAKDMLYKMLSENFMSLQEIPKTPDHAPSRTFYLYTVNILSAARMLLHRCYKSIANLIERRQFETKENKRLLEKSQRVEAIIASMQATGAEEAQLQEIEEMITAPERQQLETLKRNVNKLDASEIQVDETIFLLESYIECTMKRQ
UniProt P09884: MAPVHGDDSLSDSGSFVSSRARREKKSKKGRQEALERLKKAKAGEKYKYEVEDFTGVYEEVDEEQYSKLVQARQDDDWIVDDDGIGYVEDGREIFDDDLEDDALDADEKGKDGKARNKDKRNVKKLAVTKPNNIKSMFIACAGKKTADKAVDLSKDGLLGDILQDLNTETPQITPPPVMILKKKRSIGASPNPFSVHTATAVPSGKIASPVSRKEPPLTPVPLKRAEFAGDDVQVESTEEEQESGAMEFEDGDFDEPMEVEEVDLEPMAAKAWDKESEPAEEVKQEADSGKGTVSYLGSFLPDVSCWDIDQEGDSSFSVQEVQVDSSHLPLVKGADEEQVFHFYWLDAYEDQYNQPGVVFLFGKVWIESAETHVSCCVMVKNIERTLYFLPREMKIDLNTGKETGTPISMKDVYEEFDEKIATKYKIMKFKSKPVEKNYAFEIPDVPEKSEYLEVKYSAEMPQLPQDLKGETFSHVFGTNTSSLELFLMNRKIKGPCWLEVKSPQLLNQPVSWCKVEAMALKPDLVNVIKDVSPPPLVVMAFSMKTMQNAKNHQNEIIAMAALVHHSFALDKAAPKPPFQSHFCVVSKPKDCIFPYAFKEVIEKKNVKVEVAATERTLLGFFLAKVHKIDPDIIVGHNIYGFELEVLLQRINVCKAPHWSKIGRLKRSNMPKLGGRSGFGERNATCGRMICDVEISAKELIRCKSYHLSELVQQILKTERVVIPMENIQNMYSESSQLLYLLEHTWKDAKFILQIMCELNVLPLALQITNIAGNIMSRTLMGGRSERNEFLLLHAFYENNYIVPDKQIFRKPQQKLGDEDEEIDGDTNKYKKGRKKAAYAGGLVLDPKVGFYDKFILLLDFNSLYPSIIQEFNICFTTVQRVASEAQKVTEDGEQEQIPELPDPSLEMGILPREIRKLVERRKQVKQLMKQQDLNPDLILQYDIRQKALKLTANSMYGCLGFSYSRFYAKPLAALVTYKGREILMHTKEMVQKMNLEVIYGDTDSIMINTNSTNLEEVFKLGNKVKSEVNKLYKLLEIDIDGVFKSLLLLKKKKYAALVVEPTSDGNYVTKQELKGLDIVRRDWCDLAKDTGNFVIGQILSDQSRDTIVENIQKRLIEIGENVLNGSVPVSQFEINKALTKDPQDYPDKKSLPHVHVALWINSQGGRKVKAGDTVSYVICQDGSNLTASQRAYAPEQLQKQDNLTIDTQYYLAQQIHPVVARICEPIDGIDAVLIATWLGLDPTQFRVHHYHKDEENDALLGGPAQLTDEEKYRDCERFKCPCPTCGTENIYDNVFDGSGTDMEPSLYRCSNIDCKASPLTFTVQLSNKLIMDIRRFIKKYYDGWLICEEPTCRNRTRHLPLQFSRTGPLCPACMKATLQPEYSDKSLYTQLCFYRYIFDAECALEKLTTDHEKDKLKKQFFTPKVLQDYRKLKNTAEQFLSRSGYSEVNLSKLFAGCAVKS
UniProt O15160, whole entry, looked up: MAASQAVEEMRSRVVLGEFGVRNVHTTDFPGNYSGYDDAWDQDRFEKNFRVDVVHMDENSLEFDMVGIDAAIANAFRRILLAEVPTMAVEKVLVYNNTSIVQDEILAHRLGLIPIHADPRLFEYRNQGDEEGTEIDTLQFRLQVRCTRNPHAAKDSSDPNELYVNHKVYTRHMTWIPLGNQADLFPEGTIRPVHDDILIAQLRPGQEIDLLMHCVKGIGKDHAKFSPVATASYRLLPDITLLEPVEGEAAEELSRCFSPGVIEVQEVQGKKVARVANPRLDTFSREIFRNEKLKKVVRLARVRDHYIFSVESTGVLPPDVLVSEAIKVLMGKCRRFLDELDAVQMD
UniProt A8CG34, whole entry, looked up: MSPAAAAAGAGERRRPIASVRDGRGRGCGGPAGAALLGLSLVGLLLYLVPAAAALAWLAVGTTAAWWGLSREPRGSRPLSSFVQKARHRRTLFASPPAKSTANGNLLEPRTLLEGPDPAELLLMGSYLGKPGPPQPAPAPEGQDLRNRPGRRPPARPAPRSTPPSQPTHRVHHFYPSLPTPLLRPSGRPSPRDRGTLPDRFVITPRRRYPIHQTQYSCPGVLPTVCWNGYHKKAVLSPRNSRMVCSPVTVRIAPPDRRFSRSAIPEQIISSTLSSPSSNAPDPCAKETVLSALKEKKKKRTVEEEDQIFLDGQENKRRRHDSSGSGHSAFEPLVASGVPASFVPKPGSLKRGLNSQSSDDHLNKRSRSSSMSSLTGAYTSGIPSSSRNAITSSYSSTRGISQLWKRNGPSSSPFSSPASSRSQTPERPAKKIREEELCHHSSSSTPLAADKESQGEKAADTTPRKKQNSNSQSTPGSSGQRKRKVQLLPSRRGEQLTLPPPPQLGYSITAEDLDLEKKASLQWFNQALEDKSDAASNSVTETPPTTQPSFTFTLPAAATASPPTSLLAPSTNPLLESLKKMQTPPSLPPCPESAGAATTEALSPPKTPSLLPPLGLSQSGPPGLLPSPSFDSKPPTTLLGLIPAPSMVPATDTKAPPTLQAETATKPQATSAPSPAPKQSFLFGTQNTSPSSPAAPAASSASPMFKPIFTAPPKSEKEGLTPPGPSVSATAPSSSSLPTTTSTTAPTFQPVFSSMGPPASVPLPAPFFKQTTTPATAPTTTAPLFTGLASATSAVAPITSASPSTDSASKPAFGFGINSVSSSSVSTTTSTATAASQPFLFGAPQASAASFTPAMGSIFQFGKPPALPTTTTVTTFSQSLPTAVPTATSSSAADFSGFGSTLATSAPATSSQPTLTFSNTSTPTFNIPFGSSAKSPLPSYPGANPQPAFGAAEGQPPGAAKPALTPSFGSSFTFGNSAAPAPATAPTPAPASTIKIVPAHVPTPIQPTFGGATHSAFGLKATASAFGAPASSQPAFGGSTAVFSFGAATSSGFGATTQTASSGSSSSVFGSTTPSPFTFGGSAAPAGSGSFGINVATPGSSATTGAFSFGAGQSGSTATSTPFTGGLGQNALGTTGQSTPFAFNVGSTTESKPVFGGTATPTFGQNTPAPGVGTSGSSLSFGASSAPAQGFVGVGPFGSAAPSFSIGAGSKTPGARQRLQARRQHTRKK
UniProt Q9NW08: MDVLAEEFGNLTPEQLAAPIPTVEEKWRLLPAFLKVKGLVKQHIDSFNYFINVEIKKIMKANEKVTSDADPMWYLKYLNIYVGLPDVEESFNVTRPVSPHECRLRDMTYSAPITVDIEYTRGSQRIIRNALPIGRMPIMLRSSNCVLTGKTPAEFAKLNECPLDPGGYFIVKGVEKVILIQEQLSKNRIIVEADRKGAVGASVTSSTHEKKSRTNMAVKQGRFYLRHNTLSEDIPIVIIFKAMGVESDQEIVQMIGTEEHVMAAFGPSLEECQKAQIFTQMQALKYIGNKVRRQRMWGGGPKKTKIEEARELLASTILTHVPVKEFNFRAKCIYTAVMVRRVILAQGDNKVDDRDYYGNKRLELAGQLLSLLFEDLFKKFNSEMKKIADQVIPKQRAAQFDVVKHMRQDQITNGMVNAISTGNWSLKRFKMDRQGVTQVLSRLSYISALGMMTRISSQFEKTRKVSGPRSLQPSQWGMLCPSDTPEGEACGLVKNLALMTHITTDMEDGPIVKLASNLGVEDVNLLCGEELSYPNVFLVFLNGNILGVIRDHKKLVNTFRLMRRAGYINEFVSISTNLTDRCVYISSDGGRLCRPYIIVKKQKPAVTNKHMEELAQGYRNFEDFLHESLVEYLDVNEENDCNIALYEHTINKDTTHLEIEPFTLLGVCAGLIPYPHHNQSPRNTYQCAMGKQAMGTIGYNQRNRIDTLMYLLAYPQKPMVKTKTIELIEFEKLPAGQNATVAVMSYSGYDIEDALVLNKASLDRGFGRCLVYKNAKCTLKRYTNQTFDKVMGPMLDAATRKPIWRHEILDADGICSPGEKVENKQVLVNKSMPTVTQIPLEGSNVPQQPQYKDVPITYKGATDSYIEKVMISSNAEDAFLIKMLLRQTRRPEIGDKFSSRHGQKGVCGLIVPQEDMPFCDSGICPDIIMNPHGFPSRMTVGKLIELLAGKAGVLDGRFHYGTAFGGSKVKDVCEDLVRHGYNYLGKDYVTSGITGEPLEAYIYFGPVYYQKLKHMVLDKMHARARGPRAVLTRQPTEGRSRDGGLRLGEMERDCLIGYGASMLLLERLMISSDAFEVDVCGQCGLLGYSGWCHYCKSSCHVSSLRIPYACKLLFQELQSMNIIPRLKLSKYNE
UniProt O75439: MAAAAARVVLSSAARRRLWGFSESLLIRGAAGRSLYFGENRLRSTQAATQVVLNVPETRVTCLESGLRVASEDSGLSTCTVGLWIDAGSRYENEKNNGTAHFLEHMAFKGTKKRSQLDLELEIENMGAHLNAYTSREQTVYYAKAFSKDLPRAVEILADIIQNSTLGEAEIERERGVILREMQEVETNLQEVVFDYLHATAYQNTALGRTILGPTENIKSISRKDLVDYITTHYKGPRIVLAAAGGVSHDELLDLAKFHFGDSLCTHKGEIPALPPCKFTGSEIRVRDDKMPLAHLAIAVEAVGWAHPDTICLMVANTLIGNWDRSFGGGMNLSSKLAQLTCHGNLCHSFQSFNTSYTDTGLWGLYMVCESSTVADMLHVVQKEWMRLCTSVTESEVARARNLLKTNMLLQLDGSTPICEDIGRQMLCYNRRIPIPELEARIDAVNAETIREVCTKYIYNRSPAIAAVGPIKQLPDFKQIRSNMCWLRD
UniProt Q9BY77: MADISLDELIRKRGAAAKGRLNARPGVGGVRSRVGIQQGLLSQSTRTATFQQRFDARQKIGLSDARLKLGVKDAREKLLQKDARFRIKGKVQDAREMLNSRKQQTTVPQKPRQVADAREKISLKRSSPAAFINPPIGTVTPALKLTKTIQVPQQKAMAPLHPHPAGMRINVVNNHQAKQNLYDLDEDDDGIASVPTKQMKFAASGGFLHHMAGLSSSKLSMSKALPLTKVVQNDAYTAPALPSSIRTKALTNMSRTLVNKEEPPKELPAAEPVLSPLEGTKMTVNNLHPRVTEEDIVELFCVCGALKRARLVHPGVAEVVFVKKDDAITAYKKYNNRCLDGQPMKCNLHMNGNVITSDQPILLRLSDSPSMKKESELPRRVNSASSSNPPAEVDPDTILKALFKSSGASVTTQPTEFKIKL
UniProt P29590: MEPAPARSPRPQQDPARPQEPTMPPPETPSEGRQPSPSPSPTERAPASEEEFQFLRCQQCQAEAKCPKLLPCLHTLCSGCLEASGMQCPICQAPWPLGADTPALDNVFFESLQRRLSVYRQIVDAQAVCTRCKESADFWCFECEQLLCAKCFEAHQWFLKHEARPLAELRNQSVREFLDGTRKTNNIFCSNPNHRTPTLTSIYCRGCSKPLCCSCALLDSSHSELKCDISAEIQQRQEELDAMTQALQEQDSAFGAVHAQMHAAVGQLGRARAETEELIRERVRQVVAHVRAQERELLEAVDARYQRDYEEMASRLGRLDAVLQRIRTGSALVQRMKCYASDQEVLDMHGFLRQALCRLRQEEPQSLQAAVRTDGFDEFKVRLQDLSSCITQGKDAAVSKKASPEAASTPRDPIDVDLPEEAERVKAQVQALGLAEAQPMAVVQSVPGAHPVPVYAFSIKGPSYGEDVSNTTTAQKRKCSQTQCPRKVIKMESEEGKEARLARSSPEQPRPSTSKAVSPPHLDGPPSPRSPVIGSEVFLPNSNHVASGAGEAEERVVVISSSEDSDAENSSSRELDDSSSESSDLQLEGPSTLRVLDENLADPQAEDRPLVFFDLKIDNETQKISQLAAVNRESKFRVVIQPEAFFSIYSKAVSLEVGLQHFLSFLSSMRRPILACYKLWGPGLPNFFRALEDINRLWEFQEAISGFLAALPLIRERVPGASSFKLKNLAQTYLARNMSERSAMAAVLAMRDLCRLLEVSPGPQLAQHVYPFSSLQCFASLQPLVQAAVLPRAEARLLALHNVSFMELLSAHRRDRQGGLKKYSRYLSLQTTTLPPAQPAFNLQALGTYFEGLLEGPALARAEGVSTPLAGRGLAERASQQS

pictilisib = compound: CS(=O)(=O)N1CCN(Cc2cc3nc(-c4cccc5[nH]ncc45)nc(N4CCOCC4)c3s2)CC1 [pictilisib]
How it was run: as §1

crizotinib = compound: C[C@@H](Oc1cc(-c2cnn(C3CCNCC3)c2)cnc1N)c1c(Cl)ccc(F)c1Cl [crizotinib]
How it was run: as §1

[1] = compound: C[C@H](C1=CC=C(C=C1)C(=O)NC2=C3C=CNC3=NC=C2)N
How it was run: as §1

duvelisib = compound: C[C@H](Nc1ncnc2nc[nH]c12)c1cc2cccc(Cl)c2c(=O)n1-c1ccccc1 [duvelisib]
How it was run: as §1

gandotinib = compound: Cc1cc(Nc2cc(CN3CCOCC3)c3nc(C)c(Cc4ccc(Cl)cc4F)n3n2)n[nH]1 [gandotinib]
How it was run: as §1

tozasertib = compound: Cc1cc(Nc2cc(N3CCN(C)CC3)nc(Sc3ccc(NC(=O)C4CC4)cc3)n2)n[nH]1 [tozasertib]
How it was run: as §1

doramapimod = compound: Cc1ccc(-n2nc(C(C)(C)C)cc2NC(=O)Nc2ccc(OCCN3CCOCC3)c3ccccc23)cc1 [doramapimod]
How it was run: as §1

bafetinib = compound: Cc1ccc(NC(=O)c2ccc(CN3CC[C@H](N(C)C)C3)c(C(F)(F)F)c2)cc1Nc1nccc(-c2cncnc2)n1 [bafetinib]
How it was run: as §1

[2] = compound: Cc1cccc(CC(=O)N2CCc3c2ccc(-c2cn(C)c4ncnc(N)c24)c3F)n1
How it was run: as §1

nilotinib = compound: Cc1cn(-c2cc(NC(=O)c3ccc(C)c(Nc4nccc(-c5cccnc5)n4)c3)cc(C(F)(F)F)c2)cn1 [nilotinib]
How it was run: as §1

[3] = compound: Cc1nc(Nc2n[nH]c3c2CN(C(=O)N[C@H](CN(C)C)c2ccccc2)C3(C)C)c2sccc2n1
How it was run: as §1

dasatinib = compound: Cc1nc(Nc2ncc(C(=O)Nc3c(C)cccc3Cl)s2)cc(N2CCN(CCO)CC2)n1 [dasatinib]
How it was run: as §1

[4] = compound: Cc1ncc(-c2ccnc(Nc3ccc(S(C)(=O)=O)cc3)n2)n1C(C)C
How it was run: as §1

[5] = compound: Cn1cc(-c2ccc3c(c2)CCN3C(=O)Cc2cccc(C(F)(F)F)c2)c2c(N)ncnc21
How it was run: as §1

quisinostat = compound: Cn1cc(CNCC2CCN(c3ncc(C(=O)NO)cn3)CC2)c2ccccc21 [quisinostat]
How it was run: as §1

tipifarnib = compound: Cn1cncc1[C@@](N)(c1ccc(Cl)cc1)c1ccc2c(c1)c(-c1cccc(Cl)c1)cc(=O)n2C [tipifarnib]
How it was run: as §1

[6] = compound: NC(=O)Nc1cc(-c2cccc(F)c2)sc1C(=O)N[C@H]1CCCNC1
How it was run: as §1

[7] = compound: NC(=O)c1cnc(N[C@@H]2CCCC[C@@H]2N)nc1Nc1cccc(-n2nccn2)c1
How it was run: as §1

[8] = compound: NC1(c2ccc(-c3nc4ccn5c(=O)[nH]nc5c4cc3-c3ccccc3)cc2)CCC1
How it was run: as §1

Target | log2 fold change (lapatinib) | log2 fold change (pictilisib) | log2 fold change (crizotinib) | log2 fold change [1] | log2 fold change (duvelisib) | log2 fold change (gandotinib) | log2 fold change (tozasertib) | log2 fold change (doramapimod) | log2 fold change (bafetinib) | log2 fold change [2] | log2 fold change (nilotinib) | log2 fold change [3] | log2 fold change (dasatinib) | log2 fold change [4] | log2 fold change [5] | log2 fold change (quisinostat) | log2 fold change (tipifarnib) | log2 fold change [6] | log2 fold change [7] | log2 fold change [8]
POLR3C (UniProt Q9BUI4) | inactive: -0.028 | inactive: -0.005 | inactive: 0.005 | inactive: -0.032 | inactive: -0.042 | inactive: -0.017 | inactive: -0.009 | inactive: 0.053 | inactive: -0.02 | inactive: -0.006 | inactive: -0.006 | inactive: 0.011 | inactive: 0.024 | inactive: 0.016 | inactive: -0.017 | inactive: -0.011 | inactive: 0.015 | inactive: 0.002 | inactive: -0.022 | inactive: -0.009
PLSCR1 (UniProt O15162) | inactive: -0.029 | inactive: -0.038 | inactive: 0.028 | inactive: -0.087 | inactive: 0.01 | inactive: 0.121 | inactive: -0.068 | inactive: 0.021 | inactive: -0.05 | inactive: 0.087 | inactive: -0.015 | inactive: -0.024 | inactive: 0.02 | inactive: -0.006 | inactive: 0.069 | inactive: -0.03 | inactive: 0.008 | inactive: -0.1 | inactive: -0.025 | inactive: -0.043
POLA1 (UniProt P09884) | inactive: -0.022 | inactive: -0.044 | inactive: -0.03 | inactive: -0.011 | inactive: 0.009 | inactive: -0.016 | inactive: 0.003 | inactive: 0.01 | inactive: -0.057 | inactive: 0.004 | inactive: -0.022 | inactive: -0.01 | inactive: 0.011 | inactive: 0.017 | inactive: 0.009 | inactive: -0.028 | inactive: -0.001 | inactive: 0.029 | inactive: 0.001 | inactive: 0.008
PPCDC (UniProt Q96CD2) | inactive: -0.023 | inactive: -0.176 | inactive: 0 | active: -0.342 | inactive: 0.062 | inactive: 0.152 | inactive: 0 | inactive: 0.024 | inactive: 0.034 | inactive: 0.19 | inactive: -0.002 | inactive: -0.014 | inactive: -0.06 | inactive: -0.017 | inactive: -0.04 | inactive: -0.015 | inactive: 0.022 | inactive: 0.013 | inactive: 0 | inactive: 0.047
POLR1C (UniProt O15160) | inactive: -0.027 | inactive: -0.018 | inactive: -0.014 | inactive: 0.045 | inactive: -0.01 | inactive: -0.05 | inactive: 0.009 | inactive: -0.018 | inactive: -0.081 | inactive: -0.018 | inactive: -0.001 | inactive: -0.009 | inactive: -0.029 | inactive: -0.027 | inactive: -0.013 | inactive: -0.02 | inactive: 0.007 | inactive: 0.018 | inactive: -0.001 | inactive: 0.033
POM121C (UniProt A8CG34) | inactive: 0.164 | inactive: 0.19 | – | inactive: 0.007 | – | inactive: 0.051 | – | – | inactive: 0.135 | inactive: -0.091 | – | – | – | – | – | – | – | – | inactive: 0.022 | inactive: -0.09
POLR3B (UniProt Q9NW08) | inactive: -0.014 | inactive: -0.056 | inactive: 0.019 | inactive: 0.019 | inactive: 0.014 | inactive: -0.05 | inactive: -0.014 | inactive: -0.006 | inactive: -0.041 | inactive: -0.033 | inactive: -0.016 | inactive: -0.014 | inactive: -0.019 | inactive: -0.003 | inactive: -0.026 | inactive: -0.013 | inactive: 0.044 | inactive: 0.026 | inactive: 0.009 | inactive: 0.027
PPFIA3 (UniProt O75145) | inactive: 0.087 | inactive: -0.136 | – | inactive: 0.104 | inactive: 0.004 | inactive: -0.034 | – | – | inactive: 0.022 | inactive: 0.005 | inactive: -0.048 | inactive: -0.16 | inactive: -0.035 | inactive: 0.019 | inactive: -0.02 | – | inactive: 0.057 | – | inactive: -0.091 | inactive: -0.034
PLRG1 (UniProt O43660) | inactive: 0.019 | inactive: 0.036 | inactive: 0.003 | inactive: -0.091 | inactive: -0.001 | inactive: 0.037 | inactive: 0 | inactive: 0.011 | inactive: -0.012 | inactive: 0.04 | inactive: -0.005 | inactive: 0.02 | inactive: 0.046 | inactive: 0.035 | inactive: -0.003 | inactive: -0.024 | inactive: 0.011 | inactive: -0.016 | inactive: -0.009 | inactive: 0.003
PMPCB (UniProt O75439) | inactive: -0.026 | inactive: -0.026 | inactive: -0.017 | inactive: -0.012 | inactive: 0.006 | inactive: -0.138 | inactive: 0.048 | inactive: -0.014 | inactive: 0.081 | inactive: 0 | inactive: -0.01 | inactive: 0.038 | inactive: 0.011 | inactive: 0.024 | inactive: 0.022 | inactive: 0.025 | inactive: 0.079 | inactive: 0.034 | inactive: 0.012 | inactive: 0.022
POLR2B (UniProt P30876) | inactive: 0.009 | inactive: -0.048 | inactive: -0.054 | inactive: -0.032 | inactive: 0.001 | inactive: -0.018 | inactive: -0.016 | inactive: 0.046 | inactive: -0.067 | inactive: 0.036 | inactive: -0.027 | inactive: 0.01 | inactive: -0.065 | inactive: 0.004 | inactive: 0.003 | inactive: -0.057 | inactive: -0.012 | inactive: 0.027 | inactive: -0.004 | inactive: -0.03
POLDIP3 (UniProt Q9BY77) | inactive: 0.024 | inactive: 0.027 | inactive: -0.001 | inactive: -0.209 | inactive: -0.057 | inactive: 0.199 | – | inactive: 0.113 | inactive: -0.033 | inactive: 0.062 | inactive: 0.158 | inactive: 0.032 | inactive: 0.027 | inactive: -0.001 | inactive: 0.02 | inactive: -0.04 | inactive: -0.045 | inactive: -0.021 | inactive: -0.037 | inactive: -0.001
PNMA8A (UniProt Q86V59) | inactive: -0.166 | inactive: -0.033 | – | – | inactive: 0.054 | – | inactive: 0.05 | – | inactive: 0.1 | – | inactive: -0.016 | inactive: 0.173 | inactive: -0.068 | inactive: -0.006 | inactive: -0.026 | – | inactive: -0.055 | – | inactive: -0.124 | inactive: -0.092
PMS2CL (UniProt Q68D20) | inactive: 0.066 | inactive: 0.013 | inactive: 0.015 | – | – | – | – | inactive: 0.013 | inactive: -0.204 | – | – | – | – | – | – | inactive: -0.018 | – | inactive: 0.055 | inactive: -0.018 | –
POFUT2 (UniProt Q9Y2G5) | inactive: -0.015 | inactive: 0.009 | inactive: 0.026 | inactive: 0.013 | inactive: 0.012 | inactive: 0.021 | inactive: 0.03 | inactive: -0.062 | inactive: -0.017 | inactive: 0.045 | inactive: -0.007 | inactive: -0.02 | inactive: -0.051 | inactive: 0.062 | inactive: -0.03 | inactive: -0.053 | inactive: -0.016 | inactive: 0.04 | inactive: -0.031 | inactive: 0.003
POLE (UniProt Q07864) | inactive: -0.038 | inactive: -0.023 | inactive: -0.097 | inactive: -0.033 | inactive: 0.006 | inactive: -0.094 | inactive: 0.005 | inactive: 0.025 | inactive: -0.089 | inactive: 0.034 | inactive: 0.022 | inactive: 0.015 | inactive: -0.054 | inactive: -0.002 | inactive: 0.053 | inactive: 0.004 | inactive: 0.003 | inactive: 0.054 | inactive: -0.04 | inactive: -0.031
PML (UniProt P29590) | inactive: -0.009 | inactive: 0.046 | inactive: 0.023 | inactive: -0.008 | inactive: 0.005 | inactive: 0 | inactive: 0.035 | inactive: 0.014 | inactive: 0.049 | inactive: 0.045 | inactive: 0.014 | inactive: 0.009 | inactive: -0.014 | inactive: -0.009 | inactive: 0 | inactive: 0.032 | inactive: -0.007 | inactive: -0.038 | inactive: 0.026 | inactive: 0.003
PNKD (UniProt Q8N490) | inactive: 0.029 | inactive: -0.093 | inactive: -0.022 | inactive: -0.076 | inactive: 0.067 | inactive: -0.001 | inactive: -0.174 | inactive: 0.017 | inactive: 0.094 | inactive: -0.045 | inactive: -0.016 | inactive: -0.022 | inactive: -0.017 | inactive: -0.002 | inactive: -0.059 | inactive: 0.064 | inactive: 0.163 | inactive: 0.119 | inactive: 0.026 | inactive: -0.178

Two entries from above, comma-delimited:
Target,log2 fold change (lapatinib),log2 fold change (pictilisib),log2 fold change (crizotinib),log2 fold change [1],log2 fold change (duvelisib),log2 fold change (gandotinib),log2 fold change (tozasertib),log2 fold change (doramapimod),log2 fold change (bafetinib),log2 fold change [2],log2 fold change (nilotinib),log2 fold change [3],log2 fold change (dasatinib),log2 fold change [4],log2 fold change [5],log2 fold change (quisinostat),log2 fold change (tipifarnib),log2 fold change [6],log2 fold change [7],log2 fold change [8]
POLR2B (UniProt P30876),inactive: 0.009,inactive: -0.048,inactive: -0.054,inactive: -0.032,inactive: 0.001,inactive: -0.018,inactive: -0.016,inactive: 0.046,inactive: -0.067,inactive: 0.036,inactive: -0.027,inactive: 0.01,inactive: -0.065,inactive: 0.004,inactive: 0.003,inactive: -0.057,inactive: -0.012,inactive: 0.027,inactive: -0.004,inactive: -0.03
POLDIP3 (UniProt Q9BY77),inactive: 0.024,inactive: 0.027,inactive: -0.001,inactive: -0.209,inactive: -0.057,inactive: 0.199,–,inactive: 0.113,inactive: -0.033,inactive: 0.062,inactive: 0.158,inactive: 0.032,inactive: 0.027,inactive: -0.001,inactive: 0.02,inactive: -0.04,inactive: -0.045,inactive: -0.021,inactive: -0.037,inactive: -0.001

Source: the supplement of paper PMC10849652
